The record followed here is the supplement of paper PMC7752906.

Where a name gives a salt, the structure may show the parent alone. This is one part of the list. Repeats in this data set agree poorly, so a single value says little.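 Wells held roughly 40 S. mansoni schistosomula, imaged in bright field over time against wells given 0.1% DMSO. The paper defines hits as drugs with a Mahalanobis distance of at least 2.47, three standard deviations above the DMSO control mean. Degeneracy is the proportion of worms classified as opaque.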 Numbered stars: 1 amine (or outer) side, 2 acyl side, 3 side chain; on linkers, the order of the positions; unused ones are H or OH. Bridge positions count the residues as written; N and C are the ends. Square brackets hold non-standard residues; d marks the D form. Peptide text beside a SMILES is read from it. * marks the point of attachment. ξ: configuration not given here. Ileψ(thiazoline)Cys = CC[C@H](C)[C@H](N)C1=N[C@H](C(=O)*)CS1; X2 = N=C1NCCC([C@H](N[*:1])C(=O)[*:2])N1; ΔAla(Z-3-ureido) = NC(=O)N/C=C(\N)C(=O)O; dOrn = NCCC[C@@H](N)C(=O)O; ξβ3hOrn = NCCCC(N)CC(=O)*; Dap = NC[C@H](N)C(=O)O

This assay relates to Schistosoma mansoni schistosomula. The assay is described as follows: Mahalanobis distance of static-rate-frequency phenotype descriptors from DMSO controls (dimensionless); higher = stronger phenotypic change versus DMSO. To be noted: 10 µM; 72 h.
As to `CC12CCC(CC1=O)C2(C)C` [D-camphor], the Mahalanobis distance was inactive: 1.79.

`C[C@@H]1NC(=O)[C@@H](N)CNC(=O)[C@H](C2CCNC(=N)N2)NC(=O)/C(=C/NC(N)=O)NC(=O)[C@H](CNC(=O)CC(N)CCCN)NC1=O.N=C1NCC[C@H]([C@@H]2NC(=O)/C(=C/NC(N)=O)NC(=O)[C@H](CNC(=O)C[C@@H](N)CCCN)NC(=O)[C@H](CO)NC(=O)[C@@H](N)CNC2=O)N1` [Capreomycin Sulfate] (H-[Dap]S[Dap](ξβ3hOrn)[ΔAla(Z-3-ureido)][X2]; lactam 1-C): the Mahalanobis distance is inactive: 1.33. Regarding `CN[C@@H]1[C@@H](O[C@H]2O[C@H](CO)[C@@H](N)[C@H](O)[C@H]2O)OC2C[C@@H](N)[C@@H](O[C@H]3[C@H](O)[C@@H](O)[C@H](N)C[C@@H]3N)OC2[C@@H]1O` (stereo not given in full) [Apramycin Sulfate], the Mahalanobis distance was inactive: 1.91. Turning to `CC(=O)NC(Cc1ccccc1)C(=O)O` (stereo not given) [Afalanine], the Mahalanobis distance is inactive: 1.7. With `CCCCCCOC(=O)NC(=N)c1ccc(NCc2nc3cc(C(=O)N(CCC(=O)OCC)c4ccccn4)ccc3n2C)cc1` [Dabigatran Etexilate Mesylate] the figure was inactive: 1.76. For `NCCCC(=O)O` [Gaba, Gamma-aminobutyric Acid], the Mahalanobis distance is inactive: 1.77. With `CN[C@@H]1[C@H](O)[C@H](NC)[C@H]2O[C@@]3(O)C(=O)C[C@@H](C)O[C@H]3O[C@@H]2[C@H]1O` [Spectinomycin] the figure was inactive: 2.34. In the case of `NS(=O)(=O)c1cc2c(cc1Cl)NC(C(Cl)Cl)NS2(=O)=O` (stereo not given) [Trichlormethiazide], the Mahalanobis distance is inactive: 2.44.

For `CC(C)Nc1cccnc1N1CCN(C(=O)c2cc3cc(NS(C)(=O)=O)ccc3[nH]2)CC1` [Delavirdine Mesylate], the Mahalanobis distance is active: 4.04. As to `C#Cc1cccc(Nc2ncnc3cc(OCCOC)c(OCCOC)cc23)c1` [Erlotinib], the Mahalanobis distance is inactive: 1.6. With `Cc1onc(-c2ccccc2Cl)c1C(=O)N[C@@H]1C(=O)N2[C@@H]1SC(C)(C)[C@@H]2C(=O)O` [Cloxacillin] the figure was active: 2.54; with `CN(C)CCC=C1c2ccccc2COc2ccccc21` [Doxepin Hydrochloride], active: 3.81. `CN(C)CCC=C1c2ccccc2COc2ccccc21` [Doxepin]: the Mahalanobis distance was active: 3.33. As for `OCc1cccnc1` [Nicotinyl Alcohol Tartrate], the figure is inactive: 2.15; as for `Cn1cnc2c1c(=O)[nH]c(=O)n2C` [Theobromine], inactive: 1.39. Consider `CC(C)(CO)C(O)C(=O)NCCCO` (stereo not given) [Panthenol], for which the Mahalanobis distance was active: 2.49. In the case of `CCOc1ccc2ccccc2c1C(=O)N[C@@H]1C(=O)N2[C@@H]1SC(C)(C)[C@@H]2C(=O)O` [Nafcillin Sodium], the Mahalanobis distance was inactive: 2.35. `C=C1/C(=C\C=C2/CCC[C@]3(C)[C@@H]([C@H](C)CCCC(C)C)CC[C@@H]23)C[C@@H](O)C[C@@H]1O` [Alfacalcidol]: the Mahalanobis distance was active: 2.59. Regarding `O=C(N[C@H](CO)[C@H](O)c1ccc([N+](=O)[O-])cc1)C(Cl)Cl` [Chloramphenicol], the Mahalanobis distance is active: 2.71.

Turning to `O=C(O)CCNC(=O)c1ccccc1` [Betamipron], the Mahalanobis distance is inactive: 2.19. Consider `C[n+]1c2cc(N)ccc2cc2ccc(N)cc21` [Acriflavinium Hydrochloride], for which the Mahalanobis distance is active: 3.61. Regarding `CCOC(=O)C1=C(COCCN)NC(C)=C(C(=O)OC)C1c1ccccc1Cl` (stereo not given) [Amlodipine Besylate], the Mahalanobis distance is inactive: 1.87. `CCOC(=O)C1=C(COCCN)NC(C)=C(C(=O)OC)C1c1ccccc1Cl` (stereo not given) [amlodipine]: the Mahalanobis distance is inactive: 2.05.

With `CCN(CC)CCNC(=O)c1c(C)[nH]c(/C=C2\C(=O)Nc3ccc(F)cc32)c1C` [Sunitinib Malate], the Mahalanobis distance was active: 2.85. `Cc1c(N(C)C)c(=O)n(-c2ccccc2)n1C` [Aminopyrine]: the Mahalanobis distance was inactive: 2.08.

Take `NC[C@@H]1O[C@H](O[C@H]2[C@@H](O)[C@H](O[C@@H]3[C@@H](O)[C@H](N)C[C@H](N)[C@H]3O[C@H]3O[C@H](CO)[C@@H](O)[C@H](O)[C@H]3N)O[C@@H]2CO)[C@H](N)[C@@H](O)[C@@H]1O` [Paromomycin Sulfate]: the Mahalanobis distance is inactive: 2.03. As for `CC[C@]1(O)C[C@H]2CN(CCc3c([nH]c4ccccc34)[C@@](C(=O)OC)(c3cc4c(cc3OC)N(C=O)[C@H]3[C@@](O)(C(=O)OC)[C@H](OC(C)=O)[C@]5(CC)C=CCN6CC[C@]43[C@@H]65)C2)C1` [Vincristine], the Mahalanobis distance is active: 2.67.

As for `Cc1cccc(C)c1OCC(C)N` (stereo not given) [Mexiletine], the Mahalanobis distance is inactive: 1.63. Regarding `CN1[C@@H]2CC[C@H]1C[C@@H](OC(=O)c1c[nH]c3ccccc13)C2` [Tropisetron], the Mahalanobis distance is inactive: 1.9. In the case of `O=C(OCC(O)CO)c1ccccc1Nc1ccnc2cc(Cl)ccc12` (stereo not given) [Glafenine], the Mahalanobis distance is active: 3.01.

Turning to `C[C@H](CCC(=O)O)[C@H]1CC[C@H]2[C@@H]3[C@H](O)C[C@@H]4C[C@H](O)CC[C@]4(C)[C@H]3C[C@H](O)[C@]12C` [Cholic Acid], the Mahalanobis distance is inactive: 1.56. On to `Cc1c(OCC(F)(F)F)ccnc1C[S@@+]([O-])c1nc2ccccc2[nH]1` [Dexlansoprazole], for which the Mahalanobis distance is inactive: 1.94. Regarding `C[C@H]1O[C@@H](O[C@H]2[C@@H](O)C[C@H](O[C@H]3[C@@H](O)C[C@H](O[C@H]4CC[C@@]5(C)[C@H](CC[C@@H]6[C@@H]5C[C@@H](O)[C@]5(C)[C@@H](C7=CC(=O)OC7)CC[C@]65O)C4)O[C@@H]3C)O[C@@H]2C)C[C@H](O)[C@@H]1O` [Digoxin], the Mahalanobis distance was active: 2.55. With `CO/N=C(\C(=O)N[C@@H]1C(=O)N2C(C(=O)O)=C(CSc3nnnn3C)CS[C@H]12)c1csc(N)n1` [Cefmenoxime Hydrochloride] the figure was inactive: 1.47.

Take `CN(C)C(=O)C(CCN1CCC(O)(c2ccc(Cl)cc2)CC1)(c1ccccc1)c1ccccc1` [Loperamide]: the Mahalanobis distance is inactive: 2.32.

On to `CC(C)(C)NCC(O)COc1cccc2c1CCC(=O)N2` (stereo not given) [Carteolol Hydrochloride], for which the Mahalanobis distance was inactive: 1.95. For the compound `CCOC(=O)O[C@]1(C(=O)COC(=O)CC)CC[C@H]2[C@@H]3CCC4=CC(=O)C=C[C@]4(C)[C@H]3[C@@H](O)C[C@@]21C` [Prednicarbate], the Mahalanobis distance was active: 3.68. `COc1ccc2c(c1OC)C(=O)O[C@@H]2[C@H]1c2c(cc3c(c2OC)OCO3)CCN1C` [Noscapine Hydrochloride]: the Mahalanobis distance is inactive: 2.16.

Regarding `O=C(C1CCCCC1)N1CC(=O)N2CCc3ccccc3C2C1` (stereo not given) [praziquantel], the Mahalanobis distance is inactive: 2.27.

As to `CN(C(=O)C(Cl)Cl)c1ccc(OC(=O)c2ccco2)cc1` [Diloxanide Furoate], the Mahalanobis distance is inactive: 1.76. As for `Oc1c(I)cc(Cl)c2cccnc12` [Clioquinol], the figure is active: 3.38; as for `CN(C)CCOC(C)(c1ccccc1)c1ccccn1` (stereo not given) [Doxylamine Succinate], inactive: 1.56; as for `C=CCNC(N)=S` [Allylthiourea], inactive: 1.5. With `CC[C@H](C)[C@H](N)C1=N[C@H](C(=O)N[C@@H](CC(C)C)C(=O)N[C@H](CCC(=O)O)C(=O)N[C@H](C(=O)N[C@H]2CCCCNC(=O)[C@H](CC(N)=O)NC(=O)[C@@H](CC(=O)O)NC(=O)[C@H](Cc3cnc[nH]3)NC(=O)[C@@H](Cc3ccccc3)NC(=O)[C@H]([C@@H](C)CC)NC(=O)[C@@H](CCCN)NC2=O)[C@@H](C)CC)CS1` [Bacitracin] ({Ileψ(thiazoline)Cys}-L[dE]IK[dOrn]I[dF]H[dD]N; lactam 4-C), the Mahalanobis distance is inactive: 1.46. On to `CC(=O)NS(=O)(=O)c1ccc(NC(=O)c2ccccc2C(=O)O)cc1` [Phthalylsulfacetamide], for which the Mahalanobis distance is inactive: 1.57.

For `OC(CNCC(O)C1CCc2cc(F)ccc2O1)C1CCc2cc(F)ccc2O1` (stereo not given) [Nebivolol Hydrochloride], the Mahalanobis distance is inactive: 1.48. As to `COc1ccc(OC)c(C(O)CNC(=O)CN)c1` (stereo not given) [Midodrine], the Mahalanobis distance was inactive: 2.26. With `CC(S)C(=O)NCC(=O)O` (stereo not given) [Tiopronin], the Mahalanobis distance is inactive: 1.13.

For `CN1CCN(CCCN2c3ccccc3Sc3ccc(C(F)(F)F)cc32)CC1` [trifluoperazine], the Mahalanobis distance was active: 2.6. In the case of `CN1CCN(C(c2ccccc2)c2ccccc2)CC1` [Cyclizine], the Mahalanobis distance is inactive: 1.71. In the case of `C[C@]12CC[C@@H]3c4ccc(OC(=O)c5ccccc5)cc4CC[C@H]3[C@@H]1CC[C@@H]2O` [Estradiol Benzoate], the Mahalanobis distance was inactive: 2.06. On to `O=C(O)c1ccccc1C(=O)Nc1ccc(S(=O)(=O)Nc2nccs2)cc1` [Phthalylsulfathiazole], for which the Mahalanobis distance is active: 2.57. As for `C[N+](C)(C)CC(=O)O` [Betaine], the figure is active: 2.86; as for `OCCN(CCO)c1nc(N2CCCCC2)c2nc(N(CCO)CCO)nc(N3CCCCC3)c2n1` [Dipyridamole], inactive: 2.47. `C[C@@H]1C[C@H]2[C@@H]3CCC4=CC(=O)C=C[C@]4(C)[C@@]3(F)[C@@H](O)C[C@]2(C)[C@@]1(O)C(=O)COP(=O)(O)O` [Dexamethasone Sodium Phosphate]: the Mahalanobis distance was inactive: 1.82. For the compound `C[C@@H]1C[C@H]2[C@@H]3CCC4=CC(=O)C=C[C@]4(C)[C@@]3(F)[C@@H](O)C[C@]2(C)[C@@]1(O)C(=O)COP(=O)(O)O` [Dexamethasone Phosphate], the Mahalanobis distance is inactive: 1.62. For the compound `CCN(CC)CCNC(C(=O)OCCC(C)C)c1ccccc1` (stereo not given) [Camylofine Dihydrochloride], the Mahalanobis distance is inactive: 2.19.

With `C(=C\c1ccccc1)/CN1CCN(C(c2ccccc2)c2ccccc2)CC1` [Cinnarazine], the Mahalanobis distance is active: 2.63. For the compound `Cc1c(-c2cnccn2)ssc1=S` [oltipraz], the Mahalanobis distance was inactive: 2.35. With `CN1CCC(=C2c3ccccc3Sc3ccccc32)CC1` [Pimethixene Maleate] the figure was inactive: 2.23.
